This is an account of results in patent US6407060.

Chains of the proteins cited; added tags and fusions are not shown. Lines headed by an entry give the natural chain unless they say otherwise; changes in a name come on top.
UniProt P18075: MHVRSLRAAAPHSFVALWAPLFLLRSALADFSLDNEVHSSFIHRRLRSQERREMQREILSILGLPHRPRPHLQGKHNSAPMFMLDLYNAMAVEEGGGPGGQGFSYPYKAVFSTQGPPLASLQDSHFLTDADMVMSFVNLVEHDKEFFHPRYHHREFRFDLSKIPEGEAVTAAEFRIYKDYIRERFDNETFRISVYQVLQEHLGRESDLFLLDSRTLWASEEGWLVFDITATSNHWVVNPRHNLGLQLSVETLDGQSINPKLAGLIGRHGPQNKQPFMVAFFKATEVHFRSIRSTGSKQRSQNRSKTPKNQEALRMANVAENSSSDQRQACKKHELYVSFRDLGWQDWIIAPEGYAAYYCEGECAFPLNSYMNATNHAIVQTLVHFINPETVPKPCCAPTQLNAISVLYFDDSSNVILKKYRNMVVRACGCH

No constants are given. Whether binding was seen depends on the method and setting. Binding seen in cells or lysates may run through a third protein. Some entries that bind do so weakly or less than the wild type.

The target in the experiment is mature OP-1 dimer (human) (UniProt P18075). In words: co-purification from CHO conditioned medium without denaturants (Zn-IMAC, S-Sepharose, Sephacryl S-200HR gel filtration); complex elutes at apparent 110 kDa.

On to “OP-1 pro-domain (from UniProt P18075 30-292)”, for which the binding entry is “binds”.
